According to doi:10.1101/2022.12.17.520852:
Results are given in words; binding and its absence hold for the method and conditions named. For part of these data: Binding seen in cells or lysates may run through a third protein. Some results given as binding are weak or reduced against the parent protein; the word gives no strength.

Protein sequences, listed by entry. Tags and fused reporters are not part of them.
UniProt P49023: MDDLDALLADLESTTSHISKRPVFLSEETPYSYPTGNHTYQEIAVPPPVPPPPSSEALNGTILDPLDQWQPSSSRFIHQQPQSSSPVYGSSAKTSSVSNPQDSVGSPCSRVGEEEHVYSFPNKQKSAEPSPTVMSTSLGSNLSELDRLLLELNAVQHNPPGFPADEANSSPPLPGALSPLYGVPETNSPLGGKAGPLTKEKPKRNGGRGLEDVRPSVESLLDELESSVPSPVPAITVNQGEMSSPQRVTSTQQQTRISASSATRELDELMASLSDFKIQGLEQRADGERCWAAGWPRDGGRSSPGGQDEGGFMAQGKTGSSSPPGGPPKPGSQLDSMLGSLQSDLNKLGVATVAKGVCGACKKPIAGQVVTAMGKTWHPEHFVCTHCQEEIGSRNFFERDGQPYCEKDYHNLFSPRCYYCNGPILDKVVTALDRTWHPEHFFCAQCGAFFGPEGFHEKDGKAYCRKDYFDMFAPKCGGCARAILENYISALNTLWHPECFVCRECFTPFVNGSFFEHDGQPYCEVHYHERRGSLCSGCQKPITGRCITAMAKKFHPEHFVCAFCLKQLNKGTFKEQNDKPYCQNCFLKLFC
UniProt O43294: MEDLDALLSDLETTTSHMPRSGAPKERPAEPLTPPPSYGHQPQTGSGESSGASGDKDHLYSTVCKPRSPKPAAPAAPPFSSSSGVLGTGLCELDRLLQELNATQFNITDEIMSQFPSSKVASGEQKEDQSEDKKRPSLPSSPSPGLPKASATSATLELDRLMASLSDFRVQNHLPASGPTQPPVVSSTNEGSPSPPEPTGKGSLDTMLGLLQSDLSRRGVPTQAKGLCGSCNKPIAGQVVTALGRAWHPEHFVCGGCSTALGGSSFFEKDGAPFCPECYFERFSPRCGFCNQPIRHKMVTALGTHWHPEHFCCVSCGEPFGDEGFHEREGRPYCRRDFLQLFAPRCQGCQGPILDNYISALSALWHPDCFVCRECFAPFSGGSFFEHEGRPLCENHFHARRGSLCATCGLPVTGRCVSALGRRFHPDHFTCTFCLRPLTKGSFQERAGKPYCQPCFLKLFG
UniProt Q96AC1: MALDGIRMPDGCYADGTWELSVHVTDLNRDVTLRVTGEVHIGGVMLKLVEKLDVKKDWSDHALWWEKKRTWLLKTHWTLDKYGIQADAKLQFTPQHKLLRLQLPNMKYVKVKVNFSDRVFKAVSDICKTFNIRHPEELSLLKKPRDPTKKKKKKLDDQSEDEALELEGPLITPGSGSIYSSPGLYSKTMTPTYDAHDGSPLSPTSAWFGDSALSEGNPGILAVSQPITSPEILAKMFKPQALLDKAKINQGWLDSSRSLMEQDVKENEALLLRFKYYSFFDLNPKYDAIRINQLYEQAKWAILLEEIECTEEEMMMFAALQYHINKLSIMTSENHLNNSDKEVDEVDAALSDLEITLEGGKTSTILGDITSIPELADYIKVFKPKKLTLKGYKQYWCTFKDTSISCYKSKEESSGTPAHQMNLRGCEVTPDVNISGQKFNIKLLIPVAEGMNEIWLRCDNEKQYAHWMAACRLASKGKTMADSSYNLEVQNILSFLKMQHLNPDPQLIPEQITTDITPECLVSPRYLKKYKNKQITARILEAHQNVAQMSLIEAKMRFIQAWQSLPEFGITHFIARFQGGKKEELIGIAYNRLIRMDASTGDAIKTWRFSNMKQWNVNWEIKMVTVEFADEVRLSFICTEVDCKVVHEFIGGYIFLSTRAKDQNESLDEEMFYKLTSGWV

Legend:
[1] = molecular target: Flag-tagged PXN WT (UniProt P49023); test: co-IP
[2] = molecular target: recombinant PXN WT (purified) (UniProt P49023); test: pull-down

“HIC-5 (endogenous, HeLa) (from UniProt O43294 1-461)” was tested, and the binding [1] was “binds”.
For “Kindlin-2 (endogenous, HeLa) (from UniProt Q96AC1 1-680)”, the binding [1] was “binds”.
“recombinant Kindlin-2 (purified) (from UniProt Q96AC1 1-680)” was tested, and the binding [2] was “binds”.
